According to PubChem BioAssay AID2685 (National Center for Advancing Translational Sciences (NCATS), 2010):
This is one part of the list. These are further read-outs of the screen, such as a control signal, another cell line or another target. No call is given for them. The list favours compounds with an active or inconclusive main result. The note in brackets gives the kind of curve behind each potency; many fits are weak.

Test: qHTS Assay for Lipid Storage Modulators in Drosophila S3 Cells;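 for cell number change: cells counted by Cell Tracker Red CMTPX staining in the red channel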
Conditions: BODIPY lipid droplet fluorescence, 18-24 h; for cell number change: measured here: cell count max response, cells fed with added oleic acid
In short: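 Laser-scanning cytometry quantifies lipid droplet accumulation (500–530 nm total intensity; droplet/cell object ratio) in oleic acid-fed (400 uM added) Drosophila S3 cells treated with a concentration series. 20 uM Triacsin C defined 100% inhibition.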

[1] = measured here: lipid fluorescence (Fed channel) AC50, cells fed with added oleic acid
[2] = measured here: cell number channel AC50, cells fed with added oleic acid

Compound	cell number change [%]	AC50 [1]	AC50 [2]
COc1ccc(S(=O)(=O)Nc2cccc(-c3ccc4nncn4n3)c2)cc1F	-25.2	3.26 µM [falling, single point]	
CC(NCC(=O)NCCc1ccc(S(N)(=O)=O)cc1)c1ccc(F)cc1 (stereo not given)	19.5	20.6 µM [rising, single point]	
COc1ccc(C(C)=O)cc1COc1ccc(Cl)cc1Cl	20.4	29.1 µM [rising, single point]	
CCOC(=O)/C(C#N)=N/Nc1ccccc1C(=O)O	-5.47	32.6 µM [falling, single point]	
CC12CCC(=O)N1C(C(=O)N1CCN(c3cccc(Cl)c3)CC1)CS2 (stereo not given)	-46.8	1.3 µM [falling, partial curve]	29.1 µM [falling, single point]
Cc1ccccc1C(=O)N1CCC(C(=O)N(CC(C)C)c2c(N)n(CC(C)C)c(=O)[nH]c2=O)CC1	-32		7.31 µM [falling, partial curve, poor fit]
Cc1ccc(/C=C/C(=O)NCc2cccs2)c(C)c1	14.4	0.731 µM [rising, full curve, poor fit]	
O=C(COC(=O)CCN=C1NS(=O)(=O)c2ccccc21)NC1CCCCCCC1	-47.3	23.1 µM [falling, single point]	32.6 µM [falling, single point]
C/C(=N\NC(=O)c1cc(C)[nH]n1)c1ccc(-c2ccccc2)cc1	15.7		
Cc1ccc(N2CC(C(=O)Nc3ccc(C)c(S(=O)(=O)N(C)C)c3)CC2=O)cc1 (stereo not given)	-21.9	0.461 µM [falling, full curve, poor fit]	
CCN(c1ccc(NC(=O)COC(=O)c2cc3ccccc3oc2=O)cc1)C(C)C	34.7		
Cn1c(SCC(=O)Nc2ccc(NC(=O)c3cccc(F)c3)cc2)nnc1-c1ccncc1	-19.4	11.6 µM [rising, single point]	
O=C(CCCSc1nc2ccccc2[nH]1)NCc1ccccc1F	-25.5		2.06 µM [rising, single point]
Cc1cccc2c1N(CCCOc1ccc(C(C)(C)C)cc1)C(=O)C2=O	-66.4	23.1 µM [falling, partial curve]	25.9 µM [falling, single point]
COc1ccc(/C=N/NC(=O)c2ccc(CSc3nc(C)cc(C)n3)cc2)c(OC)c1OC	14.1	2.06 µM [rising, partial curve]	
Cc1ccc(S(=O)(=O)N/N=C\c2ccc3c(c2)OCO3)cc1		32.6 µM [rising, single point]	
COc1ccc(CNC(=O)c2cccc(-c3ccc(C)c4ccccc34)n2)cc1	-10.5		
CCOc1ccc(OCCNC(=O)C(NC(=O)c2c(F)cccc2F)C(C)C)cc1 (stereo not given)	29.3	1.84 µM [falling, partial curve]	
O=C(Nc1ccc(CN2CCCCC2)cc1)Nc1ccccc1Cl	-47.8	7.31 µM [falling, partial curve, poor fit]	7.31 µM [falling, single point]
COc1ccc(C(=O)n2cnc(N)n2)cc1	0.738	16.4 µM [rising, partial curve, poor fit]	
O=C1CC(C(=O)Nc2cccc3ccccc23)C2(CCCC2)O1 (stereo not given)	8.14	0.411 µM [rising, partial curve, poor fit]	
O=C(Oc1ccnc2cc(Cl)ccc12)N1CCCCCC1	-9.32		
CCCn1c(SCC(=O)N2CCCCC2)nnc1C(C)C	-53.2	23.1 µM [falling, partial curve]	18.4 µM [falling, partial curve]
CCc1cc(-c2n[nH]c(C)c2-c2nc3ccccc3n2C)c(O)c(CN2CCN(C)CC2)c1O	-12.4	13 µM [falling, partial curve]	0.116 µM [falling, full curve, poor fit]
Nc1nc(SCC(=O)O)[nH]c(=O)c1NC(=O)c1ccccc1F	-33.2	29.1 µM [falling, single point]	0.058 µM [falling, full curve, poor fit]
CCOc1ccccc1NC(=O)c1cc(C(=O)c2cc(OC)ccc2O)coc1=N	100		18.4 µM [rising, partial curve]
Cc1ccc(NC2=NC(c3ccco3)n3c(nc(C)cc3=O)N2)c(C)c1 (stereo not given)	-10.8	1.16 µM [rising, single point]	0.731 µM [falling, single point]

Some of the entries above, set out differently:
Compound | cell number change [%] | AC50 [1] | AC50 [2]
Cc1ccc(N2CC(C(=O)Nc3ccc(C)c(S(=O)(=O)N(C)C)c3)CC2=O)cc1 (stereo not given) | -21.9 | 0.461 µM [falling, full curve, poor fit] | 
CCN(c1ccc(NC(=O)COC(=O)c2cc3ccccc3oc2=O)cc1)C(C)C | 34.7 |  | 
Cc1cccc2c1N(CCCOc1ccc(C(C)(C)C)cc1)C(=O)C2=O | -66.4 | 23.1 µM [falling, partial curve] | 25.9 µM [falling, single point]
O=C1CC(C(=O)Nc2cccc3ccccc23)C2(CCCC2)O1 (stereo not given) | 8.14 | 0.411 µM [rising, partial curve, poor fit] | 

The results go on:

Compound	cell number change [%]	AC50 [1]	AC50 [2]
Cc1cc(OCC(=O)NNC(=O)c2ccncc2)cc(C)c1Cl	-31.2	29.1 µM [rising, single point]	11.6 µM [falling, partial curve]
NC(=O)C1CCN(C(c2ccccc2Cl)c2nnnn2Cc2ccc3c(c2)OCO3)CC1 (stereo not given)	81.8		6.51 µM [rising, full curve]
COc1cccc(N(C(=O)CNC(=O)c2ccco2)C(C(=O)NC2CCCC2)c2cccnc2)c1 (stereo not given)	32.5		29.1 µM [rising, single point]
O=C1c2ccccc2C(=Nc2ccccc2)C1c1cccc(Br)c1 (stereo not given)	-34.8	20.6 µM [falling, single point]	18.4 µM [falling, single point]
O=C1NC(c2ccccc2OC(F)F)Oc2ccccc21 (stereo not given)		0.58 µM [rising, full curve, poor fit]	0.82 µM [rising, single point]
CC1CCCCC12NC(=O)N(CC(=O)N1CCN(S(=O)(=O)c3ccc4c(c3)CCC4)CC1)C2=O (stereo not given)	5.22		
Cc1ccc(-n2c(Cc3noc4ccccc34)n[nH]c2=S)cc1	15.4	1.46 µM [rising, full curve, poor fit]	
CC(=O)Nc1ccc(NC(=O)C(C)OC(=O)C2CCCCC2)cc1 (stereo not given)	-58.4	2.06 µM [falling, full curve]	29.1 µM [falling, single point]
Cc1ccc(S(=O)(=O)N2CCC(=O)N(CCOC(=O)Nc3cccc(Cl)c3)CC2)cc1	8.84	0.411 µM [rising, full curve, poor fit]	
CCC1=NNC(=O)C(CC(=O)Nc2ccccc2)c2cc(OC)c(OC)cc21 (stereo not given)	30.1	10.3 µM [rising, partial curve, poor fit]	20.6 µM [rising, single point]
O=C(Nc1ccccc1N1CCOCC1)c1cc(-c2ccco2)nc2ccccc12	15.7	1.46 µM [rising, partial curve]	0.461 µM [rising, full curve, poor fit]
C(=N\N1CCN(c2ccccn2)CC1)/c1ccccn1	-57.4	29.1 µM [falling, single point]	29.1 µM [falling, single point]
Cc1ccc(F)cc1NC(=O)c1cnccn1		5.8 µM [rising, partial curve, poor fit]	6.51 µM [rising, single point]
O=C1C=C(c2ccc(F)nc2)C[C@@H](c2ccc3c(c2)OCO3)C1	4.66	23.1 µM [rising, single point]	
CCOC(=O)c1c(NC(=O)C2=COCCO2)sc2c1CCN(C(=O)OC)C2	29.1	1.46 µM [rising, full curve]	1.03 µM [rising, full curve, poor fit]
CNc1ncc(C(=O)c2ccc(Br)cc2)s1	5.69		
Nc1nc(CSc2nc3ccccc3[nH]2)cs1	33.6	0.651 µM [rising, full curve, poor fit]	29.1 µM [rising, single point]
COc1ccccc1N1CCN(C(=O)c2sc3nc(C)nc(N4CCN(c5ccccn5)CC4)c3c2C)CC1	20.5		
COC(=O)CC1C(=O)NCCN1C(=O)c1ccc(S(=O)(=O)N2CCOCC2)cc1 (stereo not given)	-29.6	0.146 µM [falling, full curve]	0.13 µM [falling, full curve]
CS(=O)(=O)N(CC(=O)NCCSC1CCCCC1)c1ccccc1	7.54		6.51 µM [falling, single point]
O=C(/C=C/c1ccccc1Cl)N1CCOCC1	-0.985	0.82 µM [rising, full curve]	
O=C(CN(Cc1cccs1)C(=O)CNC(=O)c1ccco1)NC1CCCCC1	2.15	29.1 µM [rising, single point]	
Cc1ccc(-n2c(=O)[nH]c3ncccc3c2=O)cc1	26.7	0.00651 µM [rising, full curve, poor fit]	
Clc1ccc(Nc2ncnc3c2cnn3-c2ccccc2)cc1	-15.1	6.51 µM [rising, single point]	0.164 µM [falling, partial curve, poor fit]
CN1/C(=C/c2cc[n+](C)c3ccccc23)C=Cc2ccccc21	-49.5	1.84 µM [falling, partial curve]	1.84 µM [falling, partial curve, poor fit]
Clc1ccc(-c2nnc3n2CCCS3)cc1	-27.9	32.6 µM [falling, single point]	
CCN(CC)S(=O)(=O)c1ccc(NS(=O)(=O)c2ccc(F)cc2)cc1	-44.9	20.6 µM [falling, single point]	29.1 µM [falling, single point]
